Measured values published in paper doi:10.1101/2025.05.29.656919 (bioRxiv, 2025).
No constants are given. Whether binding was seen depends on the method and setting. Some entries that bind do so weakly or less than the wild type. Sequences can lack the tags named with a protein.

T1: GST-fused VDAC2 N-terminal overhang (Arabidopsis) (UniProt Q9FJX3)
T1 sequence: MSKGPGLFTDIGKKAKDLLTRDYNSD

T2: GST-fused VDAC3 N-terminal overhang (Arabidopsis) (UniProt Q9SMX3)
T2 sequence: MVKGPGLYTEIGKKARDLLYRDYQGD

T3: GST-fused VDAC1 N-terminal overhang (Arabidopsis) (UniProt Q9SRH5)
T3 sequence: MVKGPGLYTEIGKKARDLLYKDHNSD

T4: Glutathione S-transferase-fused VDAC3 (Arabidopsis, UniProt Q9SMX3 1-274)
T4 sequence (looked up): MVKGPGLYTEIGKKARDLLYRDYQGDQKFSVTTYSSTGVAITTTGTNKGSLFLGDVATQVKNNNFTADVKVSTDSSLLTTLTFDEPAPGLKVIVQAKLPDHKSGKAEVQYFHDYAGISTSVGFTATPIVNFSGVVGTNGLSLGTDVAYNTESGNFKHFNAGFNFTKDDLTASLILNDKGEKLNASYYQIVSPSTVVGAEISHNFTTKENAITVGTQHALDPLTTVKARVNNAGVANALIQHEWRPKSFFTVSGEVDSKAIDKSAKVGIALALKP

T5: Glutathione S-transferase-fused VDAC1 (Arabidopsis, UniProt Q9SRH5 1-276)
T5 sequence (looked up): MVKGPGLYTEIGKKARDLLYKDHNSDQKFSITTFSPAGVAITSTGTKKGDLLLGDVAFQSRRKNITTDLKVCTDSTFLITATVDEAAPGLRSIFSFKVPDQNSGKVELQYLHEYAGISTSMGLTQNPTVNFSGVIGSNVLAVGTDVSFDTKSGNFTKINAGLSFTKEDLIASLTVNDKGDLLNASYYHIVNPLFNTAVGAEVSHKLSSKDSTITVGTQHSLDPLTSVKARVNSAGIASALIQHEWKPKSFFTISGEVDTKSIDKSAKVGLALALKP

T6: Glutathione S-transferase-fused VDAC2 (Arabidopsis, UniProt Q9FJX3 1-276)
T6 sequence (looked up): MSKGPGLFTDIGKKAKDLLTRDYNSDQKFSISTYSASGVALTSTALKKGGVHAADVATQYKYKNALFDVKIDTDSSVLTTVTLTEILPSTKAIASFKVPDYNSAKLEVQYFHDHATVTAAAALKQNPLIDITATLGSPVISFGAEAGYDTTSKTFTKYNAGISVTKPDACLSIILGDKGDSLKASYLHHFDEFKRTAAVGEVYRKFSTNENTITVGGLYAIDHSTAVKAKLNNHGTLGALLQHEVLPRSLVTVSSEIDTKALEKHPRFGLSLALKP

T7: ATG8d fused with the GAL4 DNA binding domain (pGBKT7) (Arabidopsis) (UniProt Q9SL04)
T7 sequence: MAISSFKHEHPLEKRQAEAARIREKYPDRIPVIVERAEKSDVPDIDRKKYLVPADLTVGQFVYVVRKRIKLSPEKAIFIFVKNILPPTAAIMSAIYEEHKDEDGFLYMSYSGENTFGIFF

T8: ATG8c fused with the GAL4 DNA binding domain (pGBKT7) (Arabidopsis) (UniProt Q8S927)
T8 sequence: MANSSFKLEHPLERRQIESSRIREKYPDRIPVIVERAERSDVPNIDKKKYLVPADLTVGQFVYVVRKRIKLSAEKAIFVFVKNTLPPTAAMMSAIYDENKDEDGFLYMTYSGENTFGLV

T9: ATG8i fused with the GAL4 DNA binding domain (pGBKT7) (Arabidopsis) (UniProt Q9LRP7)
T9 sequence: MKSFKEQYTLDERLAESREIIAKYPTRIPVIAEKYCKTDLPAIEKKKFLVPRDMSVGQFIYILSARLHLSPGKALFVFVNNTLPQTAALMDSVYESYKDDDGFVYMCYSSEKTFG

T10: ATG8f fused with the GAL4 DNA binding domain (pGBKT7) (Arabidopsis) (UniProt Q8VYK7)
T10 sequence: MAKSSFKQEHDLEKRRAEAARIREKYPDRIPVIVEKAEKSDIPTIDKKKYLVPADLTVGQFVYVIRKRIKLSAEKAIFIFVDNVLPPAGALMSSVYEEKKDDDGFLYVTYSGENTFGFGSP

T11: ATG8b fused with the GAL4 DNA binding domain (pGBKT7) (Arabidopsis) (UniProt Q9XEB5)
T11 sequence: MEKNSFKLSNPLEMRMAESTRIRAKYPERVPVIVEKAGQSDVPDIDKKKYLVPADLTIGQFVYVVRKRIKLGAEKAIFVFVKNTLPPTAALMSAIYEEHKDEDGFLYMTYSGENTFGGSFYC

T12: ATG8a fused with the GAL4 DNA binding domain (pGBKT7) (Arabidopsis) (UniProt Q8LEM4)
T12 sequence: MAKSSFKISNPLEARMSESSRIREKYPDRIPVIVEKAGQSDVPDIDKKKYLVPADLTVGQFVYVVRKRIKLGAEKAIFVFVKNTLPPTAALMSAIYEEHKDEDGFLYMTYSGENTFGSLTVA

T13: ATG8e fused with the GAL4 DNA binding domain (pGBKT7) (Arabidopsis) (UniProt Q8S926)
T13 sequence: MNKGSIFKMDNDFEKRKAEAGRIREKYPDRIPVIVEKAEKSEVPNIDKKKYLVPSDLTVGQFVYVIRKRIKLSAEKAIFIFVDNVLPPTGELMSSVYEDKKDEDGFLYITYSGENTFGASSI

T14: ATG8h fused with the GAL4 DNA binding domain (pGBKT7) (Arabidopsis) (UniProt Q8S925)
T14 sequence: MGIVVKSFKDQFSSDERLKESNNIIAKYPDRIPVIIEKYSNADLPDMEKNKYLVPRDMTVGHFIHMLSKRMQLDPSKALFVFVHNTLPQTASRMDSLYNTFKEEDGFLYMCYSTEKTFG

T15: ATG8g fused with the GAL4 DNA binding domain (pGBKT7) (Arabidopsis) (UniProt Q9LZZ9)
T15 sequence: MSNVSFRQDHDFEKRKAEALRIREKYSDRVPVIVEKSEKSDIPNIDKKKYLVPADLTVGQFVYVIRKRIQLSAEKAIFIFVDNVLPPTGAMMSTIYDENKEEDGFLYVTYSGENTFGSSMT


Columns and labels:
[1] = target: T1, GST-fused VDAC2 N-terminal overhang (Arabidopsis); experiment: pull-down
[2] = target: T2, GST-fused VDAC3 N-terminal overhang (Arabidopsis); experiment: pull-down
[3] = target: T3, GST-fused VDAC1 N-terminal overhang (Arabidopsis); experiment: pull-down
[4] = target: T4, Glutathione S-transferase-fused VDAC3; experiment: pull-down
[5] = target: T5, Glutathione S-transferase-fused VDAC1; experiment: pull-down
[6] = target: T6, Glutathione S-transferase-fused VDAC2; experiment: pull-down
[7] = target: T7, ATG8d fused with the GAL4 DNA binding domain (pGBKT7) (Arabidopsis); experiment: two-hybrid
[8] = target: T8, ATG8c fused with the GAL4 DNA binding domain (pGBKT7) (Arabidopsis); experiment: two-hybrid
[9] = target: T9, ATG8i fused with the GAL4 DNA binding domain (pGBKT7) (Arabidopsis); experiment: two-hybrid
[10] = target: T10, ATG8f fused with the GAL4 DNA binding domain (pGBKT7) (Arabidopsis); experiment: two-hybrid
[11] = target: T11, ATG8b fused with the GAL4 DNA binding domain (pGBKT7) (Arabidopsis); experiment: two-hybrid
[12] = target: T12, ATG8a fused with the GAL4 DNA binding domain (pGBKT7) (Arabidopsis); experiment: two-hybrid
[13] = target: T13, ATG8e fused with the GAL4 DNA binding domain (pGBKT7) (Arabidopsis); experiment: two-hybrid
[14] = target: T14, ATG8h fused with the GAL4 DNA binding domain (pGBKT7) (Arabidopsis); experiment: two-hybrid
[15] = target: T15, ATG8g fused with the GAL4 DNA binding domain (pGBKT7) (Arabidopsis); experiment: two-hybrid

binding [1] | binding [2] | binding [3] | binding [4] | binding [5] | binding [6] | binding [7] | binding [8] | binding [9] | binding [10] | binding [11] | binding [12] | binding [13] | binding [14] | binding [15] | Binder
no binding | no binding | no binding | no binding | no binding | no binding |  |  |  |  |  |  |  |  |  | ATG8e with LDS mutation (Y51A, L52A) (protein, UniProt Q8S926 1-118) MNKGSIFKMDNDFEKRKAEAGRIREKYPDRIPVIVEKAEKSEVPNIDKKKAAVPSDLTVGQFVYVIRKRIKLSAEKAIFIFVDNVLPPTGELMSSVYEDKKDEDGFLYITYSGENTFG
 |  |  |  |  |  | binds | binds | binds | binds | binds | binds | binds | binds | binds | VDAC3 fused with the activating domain (pGADT7) (protein, UniProt Q9SMX3 1-274) MVKGPGLYTEIGKKARDLLYRDYQGDQKFSVTTYSSTGVAITTTGTNKGSLFLGDVATQVKNNNFTADVKVSTDSSLLTTLTFDEPAPGLKVIVQAKLPDHKSGKAEVQYFHDYAGISTSVGFTATPIVNFSGVVGTNGLSLGTDVAYNTESGNFKHFNAGFNFTKDDLTASLILNDKGEKLNASYYQIVSPSTVVGAEISHNFTTKENAITVGTQHALDPLTTVKARVNNAGVANALIQHEWRPKSFFTVSGEVDSKAIDKSAKVGIALALKP
 |  |  |  |  |  | binds | binds | binds | binds | binds | binds | binds | binds | binds | VDAC1 fused with the activating domain (pGADT7) (protein, UniProt Q9SRH5 1-276) MVKGPGLYTEIGKKARDLLYKDHNSDQKFSITTFSPAGVAITSTGTKKGDLLLGDVAFQSRRKNITTDLKVCTDSTFLITATVDEAAPGLRSIFSFKVPDQNSGKVELQYLHEYAGISTSMGLTQNPTVNFSGVIGSNVLAVGTDVSFDTKSGNFTKINAGLSFTKEDLIASLTVNDKGDLLNASYYHIVNPLFNTAVGAEVSHKLSSKDSTITVGTQHSLDPLTSVKARVNSAGIASALIQHEWKPKSFFTISGEVDTKSIDKSAKVGLALALKP
 |  |  |  |  |  | binds | binds | binds | binds | binds | binds | binds | binds | binds | VDAC2 fused with the activating domain (pGADT7) (protein, UniProt Q9FJX3 1-276) MSKGPGLFTDIGKKAKDLLTRDYNSDQKFSISTYSASGVALTSTALKKGGVHAADVATQYKYKNALFDVKIDTDSSVLTTVTLTEILPSTKAIASFKVPDYNSAKLEVQYFHDHATVTAAAALKQNPLIDITATLGSPVISFGAEAGYDTTSKTFTKYNAGISVTKPDACLSIILGDKGDSLKASYLHHFDEFKRTAAVGEVYRKFSTNENTITVGGLYAIDHSTAVKAKLNNHGTLGALLQHEVLPRSLVTVSSEIDTKALEKHPRFGLSLALKP
